These are yes or no findings as the source states them, for the method shown. In cells and extracts the contact can be indirect.
Biological target: Flag-XPO5 (FLAG-tagged human XPO5) (human) (UniProt Q9HAV4)
Experiment: co-IP; anti-FLAG M2 affinity purification from transfected HEK293T (293FT) cells lysed in hypotonic gentle lysis buffer (10 mM Tris-HCl pH 7.6, 10 mM NaCl, 2 mM EDTA, 0.5% Triton X-100); Western blot and silver stain

The chains behind the UniProt entries cited, without tags or fusion partners. Where a name states a change or a piece, a line headed by the entry shows the natural chain unless it says otherwise.
UniProt Q9HAV4: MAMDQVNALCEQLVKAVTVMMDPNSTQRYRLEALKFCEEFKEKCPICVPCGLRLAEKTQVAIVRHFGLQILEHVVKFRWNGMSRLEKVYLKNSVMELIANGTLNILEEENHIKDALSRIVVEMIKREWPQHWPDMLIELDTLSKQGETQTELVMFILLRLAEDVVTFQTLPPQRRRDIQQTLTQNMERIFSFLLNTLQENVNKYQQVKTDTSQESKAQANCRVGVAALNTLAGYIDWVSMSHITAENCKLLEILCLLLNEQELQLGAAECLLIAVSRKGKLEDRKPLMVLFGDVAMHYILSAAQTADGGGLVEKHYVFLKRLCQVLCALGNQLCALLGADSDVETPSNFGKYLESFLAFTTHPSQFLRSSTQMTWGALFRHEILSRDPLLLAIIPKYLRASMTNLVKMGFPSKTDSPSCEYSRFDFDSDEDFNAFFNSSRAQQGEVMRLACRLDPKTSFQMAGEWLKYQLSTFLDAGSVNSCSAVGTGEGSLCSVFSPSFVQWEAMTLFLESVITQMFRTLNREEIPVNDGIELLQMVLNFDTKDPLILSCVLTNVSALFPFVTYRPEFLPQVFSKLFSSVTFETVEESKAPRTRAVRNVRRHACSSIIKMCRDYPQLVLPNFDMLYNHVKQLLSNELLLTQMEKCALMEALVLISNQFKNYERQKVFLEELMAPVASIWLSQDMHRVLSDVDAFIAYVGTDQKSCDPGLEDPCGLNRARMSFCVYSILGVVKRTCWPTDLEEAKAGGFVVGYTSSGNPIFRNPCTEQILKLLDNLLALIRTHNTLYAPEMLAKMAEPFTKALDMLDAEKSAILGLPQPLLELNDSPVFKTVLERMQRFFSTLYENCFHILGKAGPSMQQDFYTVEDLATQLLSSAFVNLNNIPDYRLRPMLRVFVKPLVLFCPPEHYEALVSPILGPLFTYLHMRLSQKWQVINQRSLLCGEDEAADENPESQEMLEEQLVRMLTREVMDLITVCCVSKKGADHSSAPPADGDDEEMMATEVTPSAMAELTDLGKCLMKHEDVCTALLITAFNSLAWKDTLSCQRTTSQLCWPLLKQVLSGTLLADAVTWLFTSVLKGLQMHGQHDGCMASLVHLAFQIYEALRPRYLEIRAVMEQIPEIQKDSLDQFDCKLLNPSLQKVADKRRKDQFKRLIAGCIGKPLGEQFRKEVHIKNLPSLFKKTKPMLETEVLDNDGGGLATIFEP
UniProt Q9NRR4: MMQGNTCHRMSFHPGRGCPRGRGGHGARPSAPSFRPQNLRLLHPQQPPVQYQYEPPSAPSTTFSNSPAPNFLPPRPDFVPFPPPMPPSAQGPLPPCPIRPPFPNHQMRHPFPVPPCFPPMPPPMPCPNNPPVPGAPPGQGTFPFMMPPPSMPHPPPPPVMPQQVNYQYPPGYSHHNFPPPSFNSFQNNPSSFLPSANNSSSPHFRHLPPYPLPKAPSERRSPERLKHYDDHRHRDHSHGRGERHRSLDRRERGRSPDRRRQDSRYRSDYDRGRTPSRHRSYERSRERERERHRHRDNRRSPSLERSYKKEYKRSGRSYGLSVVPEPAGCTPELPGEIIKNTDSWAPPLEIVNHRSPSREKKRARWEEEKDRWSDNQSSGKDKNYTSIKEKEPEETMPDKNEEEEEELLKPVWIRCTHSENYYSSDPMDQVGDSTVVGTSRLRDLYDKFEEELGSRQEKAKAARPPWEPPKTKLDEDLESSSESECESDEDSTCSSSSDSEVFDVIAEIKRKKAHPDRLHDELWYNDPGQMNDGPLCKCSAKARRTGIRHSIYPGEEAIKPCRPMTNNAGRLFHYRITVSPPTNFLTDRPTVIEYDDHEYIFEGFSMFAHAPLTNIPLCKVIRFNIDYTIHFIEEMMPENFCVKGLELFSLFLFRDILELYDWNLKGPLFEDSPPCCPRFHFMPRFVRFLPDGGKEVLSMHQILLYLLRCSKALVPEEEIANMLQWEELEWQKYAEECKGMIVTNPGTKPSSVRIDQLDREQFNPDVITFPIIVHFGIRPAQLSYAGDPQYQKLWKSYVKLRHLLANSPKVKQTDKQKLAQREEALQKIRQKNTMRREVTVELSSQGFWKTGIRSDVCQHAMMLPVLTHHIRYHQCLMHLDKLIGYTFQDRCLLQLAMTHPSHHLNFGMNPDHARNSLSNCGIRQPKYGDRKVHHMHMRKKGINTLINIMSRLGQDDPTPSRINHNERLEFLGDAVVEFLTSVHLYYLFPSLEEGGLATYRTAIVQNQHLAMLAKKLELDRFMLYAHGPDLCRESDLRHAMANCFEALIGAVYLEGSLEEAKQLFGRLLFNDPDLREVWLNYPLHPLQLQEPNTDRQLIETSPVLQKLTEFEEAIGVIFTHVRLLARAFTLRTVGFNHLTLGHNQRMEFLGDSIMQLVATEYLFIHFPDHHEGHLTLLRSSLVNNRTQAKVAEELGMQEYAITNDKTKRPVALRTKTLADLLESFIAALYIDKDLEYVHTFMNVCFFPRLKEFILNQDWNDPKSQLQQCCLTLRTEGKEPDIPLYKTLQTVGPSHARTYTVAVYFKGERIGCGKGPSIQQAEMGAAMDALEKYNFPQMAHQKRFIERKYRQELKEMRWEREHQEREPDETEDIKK

binding: no binding
Substance: DROSHA/DGCR8 microprocessor (from UniProt Q9NRR4 1-1374; Q8WYQ5 1-773) (complex)
